Results on 1 compound are retold here after patent US7868015B2, “Phosphodiesesterase 4 inhibitors for the treatment of a cognitive deficit” (Cold Spring Harbor Laboratory, priority 2000, dated 2011).

This series deals with CBP^+/− mutant mice and wildtype mice. Kind of series: Object recognition: control behavioural measures and repeated injections, both genotypes. In kind it is in vivo. As to the method: In addition, vehicle- and drug-injected mice were counterbalanced from experiment to experiment. Such design allowed at least two weeks wash-out time between repeated usages of high doses.
The experiments were videotaped via an overhead video camera system. Types were reviewed by a blinded observer and the following behavioral parameters were determined: time of exploration of an each object; the total time of exploration of the objects; number of approaches to the objects; and time (latency) to first approach to an object. The discrimination index was determined as described previously (Ennaceur, A. & Aggleton, J. P., Behav. Brain Res., 88:181-193 (1997)). […] All values in the text and figure legends are expressed as mean±SEM.

Turning to `COc1ccc([C@H]2CNC(=O)[C@H](Cc3cccc(C)c3)C2)cc1OC1CCCC1` [HT0712, (3S,5S)-5-(3-cyclopentyloxy-4-methoxy-phenyl)-3-(3-methyl-benzyl)-piperidin-2-one], under “all experiments”, the “latency to first approach an object, differences between genotypes and/or drug treatments” value was “no differences”. For the same compound, for the setting “mouse, in vivo”, the “total exploration time, effect of drug treatment” value is given as “did not change” and the “total number of object-approaches, effect of drug treatment” value is “did not change”.
